Measurements taken from PubChem BioAssay AID292 (DTP/NCI, 2004).
The list shows only some results of the screen, not a fair sample: it gathers tests that were run many times, whatever their T/C, doses with no T/C, and many T/C values between a quarter and a half above the control. Other doses and runs of a compound stand elsewhere. T/C gives the treated animals as a percentage of the vehicle group. Some doses have a count of surviving animals in place of a T/C: the source files T/C as zero there, which appears to mark a toxic dose or a test without result, not a measured value. Some survivor counts are full or nearly so, which does not show that the dose was tolerated: survival well below the control is almost never listed, so the zero probably covers shortened survival too. Survivors were counted at the toxicity check, usually on the fifth day, unless a day is given; later deaths do not show. Schedule codes are those of the source, read here as Q, the interval in days (D) or hours (H), X, the number of doses. Some entries were tested several times; their values stand side by side, smallest first. Where survival is the endpoint, the PubChem record calls one and a half times the control and up active, and a quarter to a half above the control has no call in these data; cut-offs in other NCI protocols can differ. Some T/C values carry the count of animals alive at the toxicity check (mostly the fifth day); where none is given, no animal had died by that day. Brackets with × say how often a value occurs here.

Test system: B6C3F1 mice, ip Sarcoma M5076, median survival T/C
Test: NCI In Vivo Anticancer Drug Screen. Data for tumor model Sarcoma M5076 (intraperitoneal) in B6C3F1 mice
Conditions: T/C endpoint: median survival time, schedule: Q04DX004 (ip), higher T/C = longer survival
Procedure, shortened: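 Transplantable tumour in mice; compound-treated vs vehicle-treated groups. Read-out: survival. Value = treated/control ratio.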

[1] = dose: 50.0 mg/kg/injection, vehicle: Klucel (hydroxypropylcellulose) (HPC)
[2] = dose: 100.0 mg/kg/injection, vehicle: Klucel (hydroxypropylcellulose) (HPC)
[3] = dose: 200.0 mg/kg/injection, vehicle: Klucel (hydroxypropylcellulose) (HPC)
[4] = dose: 25.0 mg/kg/injection, vehicle: saline with Tween-80
[5] = dose: 50.0 mg/kg/injection, vehicle: saline with Tween-80
[6] = dose: 100.0 mg/kg/injection, vehicle: saline with Tween-80
[7] = dose: 200.0 mg/kg/injection, vehicle: saline with Tween-80
[8] = dose: 400.0 mg/kg/injection, vehicle: saline with Tween-80
[9] = dose: 100.0 mg/kg/injection, vehicle: saline
[10] = dose: 200.0 mg/kg/injection, vehicle: saline
[11] = dose: 800.0 mg/kg/injection, vehicle: saline
[12] = dose: 666.67 mg/kg/injection, vehicle: saline with Tween-80

Question: `CC1[C@@H]2CC=C3[C@H]4CCC5Cc6nc7c(nc6C[C@@]5(C)C4CC(=O)[C@]32CO[C@]12OC(C)(C)CC2O)CC1CC[C@@H]2C3=C[C@H]4O[C@@]5(O[C@@](C)(CO)C[C@@H]5O)C(C)[C@@]4(O)[C@]3(C)[C@@H](O)CC2[C@]1(C)C7` (stereo partly drawn) was tested. Which survivor count (dose: 200.0 micrograms/kg/injection, vehicle: saline + alcohol) did it give?
Answer: The survivor count was 6 of 10 on day 14.

Question: And the survivor count (dose: 400.0 micrograms/kg/injection, vehicle: saline + alcohol)?
Answer: The survivor count was 3 of 10 on day 14.

Question: And the survivor count (dose: 800.0 micrograms/kg/injection, vehicle: saline + alcohol)?
Answer: Its survivor count is 2 of 10 on day 14.

Question: For `O=C(O)CC(Sc1ccc(Cl)cc1)C(=O)Nc1ccccc1` (stereo not drawn), which survivor count (dose: 250.0 mg/kg/injection, vehicle: saline with Tween-80) is on record?
Answer: The survivor count was 9 of 10 on day 14.

Question: With `CC(CNC(=O)C12CC3CC(CC(C3)C1)C2)NC(=O)C12CC3CC(CC(C3)C1)C2` (stereo not drawn) as the compound, how does the survivor count (dose: 400.0 mg/kg/injection, vehicle: other) read?
Answer: Its survivor count is 9 of 10 on day 14.

Question: Which T/C (dose: 16.0 mg/kg/injection, vehicle: saline with Tween-80) does the source give for `COC(C(=O)C(O)C(C)O)C1CC2C=C3C=C(OC4CC(OC5CC(O)C(OC)C(C)O5)C(OC(C)=O)C(C)O4)C(C)C(=O)C3=C(O)C2=C(O)C1OC1CC(OC2CC(OC3CC(C)(O)C(O)C(C)O3)C(O)C(C)O2)C(O)C(C)O1` (stereo not drawn) here?
Answer: Its T/C is 135 % of control [9 of 10 alive on day 14].

Question: What about the survivor count (dose: 32.0 mg/kg/injection, vehicle: saline with Tween-80) of the same compound?
Answer: The survivor count was 4 of 10 on day 14.

Question: What about the survivor count (dose: 64.0 mg/kg/injection, vehicle: saline with Tween-80) of the same compound?
Answer: The survivor count was 0 of 10 on day 14.

Question: What about the survivor count (dose: 128.0 mg/kg/injection, vehicle: saline with Tween-80) of the same compound?
Answer: Its survivor count is 0 of 10 on day 14.

Question: What about the survivor count (dose: 256.0 mg/kg/injection, vehicle: saline with Tween-80) of the same compound?
Answer: Its survivor count is 0 of 10 on day 14.

Question: For `Cc1nc2ccccc2c(N)c1-c1cc(C)c2c(C)nc3ccccc3c2n1`, which survivor count [1] is on record?
Answer: The survivor count was 10 of 10 on day 14.

Question: What about the survivor count [2] of the same compound?
Answer: Its survivor count is 10 of 10 on day 14.

Question: And the survivor count [3]?
Answer: Its survivor count is 10 of 10 on day 14.

Question: And the survivor count (dose: 400.0 mg/kg/injection, vehicle: Klucel (hydroxypropylcellulose) (HPC))?
Answer: Its survivor count is 10 of 10 on day 14.

Question: With `O=C(Nc1ccccc1)c1c(O)[nH]c(=S)[nH]c1=O` as the compound, how does the T/C (dose: 12.5 mg/kg/injection, vehicle: saline with Tween-80) read?
Answer: Its T/C is 108, 112, 113, 119 % of control.

Question: And the T/C [4]?
Answer: The T/C was 114, 115, 116, 118, 119, 124, 130 % of control.

Question: And the T/C [5]?
Answer: The T/C was 127, 131, 133 (2×), 135, 147, 149 % of control.

Question: And the T/C [6]?
Answer: Its T/C is 139, 144 [8 of 10 alive on day 14], 155 [7 of 10 alive on day 14], 157, 170, 172, 207 % of control [8 of 10 alive on day 14].

Question: What about the T/C [7] of the same compound?
Answer: The T/C was 164, 184, 184 % of control [9 of 10 alive on day 14].

Question: And the survivor count [7]?
Answer: Its survivor count is 0 of 10 on day 14, 4 of 10 on day 14, 5 of 10 on day 14.

Question: And the survivor count [8]?
Answer: The survivor count was 0 of 10 on day 14 and 2 of 10 on day 14.

Question: For `CCN(Cc1ccc(Cl)c(Cl)c1)c1ccc2nc(N)nc(N)c2c1C`, which T/C (dose: 12.5 mg/kg/injection, vehicle: saline) is on record?
Answer: The T/C was 126 % of control.

Question: And the T/C (dose: 50.0 mg/kg/injection, vehicle: saline)?
Answer: The T/C was 128 and 131 % of control [7 of 10 alive on day 14].

Question: And the T/C [9]?
Answer: The T/C was 126 % of control [9 of 10 alive on day 14].

Question: What about the survivor count [9] of the same compound?
Answer: Its survivor count is 2 of 10 on day 14 and 6 of 10 on day 14.

Question: What about the survivor count [10] of the same compound?
Answer: The survivor count was 0 of 10 on day 14 and 3 of 10 on day 14.

Question: How did the T/C (dose: 11.0 mg/kg/injection, vehicle: water) turn out when `N#Cc1ccc(NN=O)nc1` was run?
Answer: Its T/C is 132 % of control.

Question: What about the T/C (dose: 12.5 mg/kg/injection, vehicle: water) of the same compound?
Answer: The T/C was 128 % of control.

Question: And the T/C (dose: 18.0 mg/kg/injection, vehicle: water)?
Answer: The T/C was 128 % of control.

Question: What about the T/C (dose: 30.0 mg/kg/injection, vehicle: water) of the same compound?
Answer: Its T/C is 146 % of control.

Question: Which results are given for `CCOP(=S)(OCC)OC(=O)C(C)SSC` (stereo not drawn) (tested in a mixture with another compound)?
Answer: survivor count (dose: 300.0 mg/kg/injection, vehicle: saline with Tween-80): 1 of 10 on day 14; survivor count (dose: 600.0 mg/kg/injection, vehicle: saline with Tween-80): 0 of 10 on day 14

Question: With `COC1CC2C=C(C)/C=C/C=C/C(=O)NC(c3ccccc3)C/C=C/CCC(O)CC(=O)C2=C1O` (stereo not drawn) as the compound, how does the survivor count [1] read?
Answer: The survivor count was 0 of 10 on day 14.

Question: How did the T/C [5] turn out when `CN(C)CCNc1ccc(CO)c2sc3ccc(O)cc3c(=O)c12` was run?
Answer: The T/C was 130 % of control.

Question: What about the T/C [6] of the same compound?
Answer: Its T/C is 136 % of control.

Question: And the survivor count [8]?
Answer: Its survivor count is 8 of 10 on day 14.

Question: What about the survivor count (dose: 800.0 mg/kg/injection, vehicle: saline with Tween-80) of the same compound?
Answer: The survivor count was 1 of 10 on day 14.

Question: Which survivor count [2] does the source give for `COc1cc2c(cc1OC)[C@@H]1C(=O)c3ccc4c(c3O[C@@H]1CO2)C[C@H](C(C)C)O4` here?
Answer: Its survivor count is 5 of 8 on day 14.

Question: And the survivor count [3]?
Answer: The survivor count was 0 of 8 on day 14.

Question: For `CN1[C@H]2C=CC(=O)[C@]1(Cl)[C@H]1C(=O)N(c3ccccc3)C(=O)[C@@H]21`, which survivor count [7] is on record?
Answer: Its survivor count is 10 of 10 on day 14.

Question: And the survivor count [8]?
Answer: Its survivor count is 7 of 10 on day 14.

Question: What does the source list for `CSC1SCC2C(=O)N(C)C(C(C)C)C(=O)OCC(NC(=O)c3cnc4ccccc4n3)C(=O)NC(C)C(=O)N(C)C1C(=O)N(C)C(C(C)C)C(=O)OCC(NC(=O)c1cnc3ccccc3n1)C(=O)NC(C)C(=O)N2C` (stereo not drawn)?
Answer: T/C (dose: 200.0 micrograms/kg/injection, vehicle: saline with Tween-80): 127 % of control; T/C (dose: 300.0 micrograms/kg/injection, vehicle: saline with Tween-80): 127 % of control [9 of 10 alive on day 14]; survivor count (dose: 400.0 micrograms/kg/injection, vehicle: saline with Tween-80): 6 of 10 on day 14

Question: For `CCNC(=O)OCc1cnc(C)c(O)c1COC(=O)NCC`, which survivor count [11] is on record?
Answer: The survivor count was 0 of 10 on day 14.

Question: How did the survivor count [9] turn out when `OCCN1CCN(CC/C=C2/c3ccccc3Sc3ccc(C(F)(F)F)cc32)CC1` was run?
Answer: Its survivor count is 0 of 10 on day 14.

Question: How did the survivor count (dose: 800.0 mg/kg/injection, vehicle: Klucel (hydroxypropylcellulose) (HPC)) turn out when `COc1ccc(C2NC(=S)NC(=O)C2C#N)cc1OC` (stereo not drawn) was run?
Answer: The survivor count was 0 of 10 on day 14.

Question: `c1ccc(P(CCNCCP(c2ccccc2)c2ccccc2)c2ccccc2)cc1` was tested. Which survivor count [7] did it give?
Answer: The survivor count was 4 of 10 on day 14.

Question: What about the survivor count [8] of the same compound?
Answer: The survivor count was 0 of 10 on day 14.

Question: `O=C/C(Cl)=C(/Cl)C(=O)O` was tested. Which survivor count [5] did it give?
Answer: Its survivor count is 0 of 10 on day 14.

Question: What about the survivor count [6] of the same compound?
Answer: Its survivor count is 0 of 10 on day 14.

Question: What about the survivor count [7] of the same compound?
Answer: The survivor count was 0 of 10 on day 14.

Question: Which T/C (dose: 20.0 mg/kg/injection, vehicle: saline) does the source give for `Cc1nc(N)nc(N)c1-c1ccc(Cl)c(Cl)c1` here?
Answer: The T/C was 146 % of control [9 of 10 alive on day 14].

Question: How did the survivor count (dose: 400.0 mg/kg/injection, vehicle: saline) turn out when `CC(C)c1ccc(C2NC(=S)NC(=O)C2C#N)cc1` (stereo not drawn) was run?
Answer: The survivor count was 2 of 10 on day 14.

Question: What about the survivor count [11] of the same compound?
Answer: Its survivor count is 0 of 10 on day 14.

Question: Which survivor count [10] does the source give for `NC(=O)c1ccc[n+](Cc2c(Cl)cccc2Cl)c1` here?
Answer: The survivor count was 0 of 10 on day 9.

Question: Which results are given for `COc1ncc(Br)cc1C(=O)NCCc1ccc(S(=O)(=O)NC(=O)NC2CCCCC2)cc1`?
Answer: survivor count [6]: 6 of 10 on day 14; survivor count [7]: 2 of 10 on day 14

Question: Which survivor count [2] does the source give for `COc1ccc(CCN2C(=O)C(=O)N(C)C2=O)cc1OC` here?
Answer: The survivor count was 10 of 10 on day 14.

Question: What about the survivor count [3] of the same compound?
Answer: The survivor count was 10 of 10 on day 14.

Question: How did the T/C (dose: 86.4 mg/kg/injection, vehicle: saline with Tween-80) turn out when `Cc1cc2c(C(C)C)c(O)c(O)c(C=NCCO)c2c(O)c1-c1c(C)cc2c(C(C)C)c(O)c(O)c(C=NCCO)c2c1O` was run?
Answer: Its T/C is 131 % of control.

Question: And the T/C (dose: 240.0 mg/kg/injection, vehicle: saline with Tween-80)?
Answer: Its T/C is 126 % of control.

Question: And the T/C [8]?
Answer: Its T/C is 148 % of control.

Question: What about the T/C [12] of the same compound?
Answer: Its T/C is 148 % of control.

Question: And the survivor count [12]?
Answer: The survivor count was 3 of 10 on day 14.

Question: Which survivor count [4] does the source give for `CS(=O)(=O)OCCCCOS(C)(=O)=O` here?
Answer: Its survivor count is 9 of 10 on day 14.

Question: What about the survivor count [5] of the same compound?
Answer: Its survivor count is 8 of 10 on day 14.

Question: And the survivor count [6]?
Answer: The survivor count was 4 of 10 on day 14.
